Test results as given in PMC11318672.
Results are given in words; binding and its absence hold for the method and conditions named. In cells and extracts the contact can be indirect. Some entries that bind do so weakly or less than the wild type.

By UniProt entry, the sequences of proteins in these tests, tags left out.
UniProt Q00765: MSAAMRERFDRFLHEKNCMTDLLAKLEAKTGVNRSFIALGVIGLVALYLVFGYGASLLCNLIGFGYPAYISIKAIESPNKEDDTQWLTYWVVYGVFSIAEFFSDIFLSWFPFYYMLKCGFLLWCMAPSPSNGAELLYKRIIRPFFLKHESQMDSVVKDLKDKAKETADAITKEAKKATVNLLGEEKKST

Key:
[1] = biological target: T1, endogenous MFN1 (human (endogenous in HEK293T)) (UniProt Q8IWA4); test: co-IP; endogenous proteins in HEK293T lysate; rabbit anti-MFN1, anti-MFN2 or IgG at 4°C overnight, then Protein A/G beads 4 h; immunoblot
T1 sequence: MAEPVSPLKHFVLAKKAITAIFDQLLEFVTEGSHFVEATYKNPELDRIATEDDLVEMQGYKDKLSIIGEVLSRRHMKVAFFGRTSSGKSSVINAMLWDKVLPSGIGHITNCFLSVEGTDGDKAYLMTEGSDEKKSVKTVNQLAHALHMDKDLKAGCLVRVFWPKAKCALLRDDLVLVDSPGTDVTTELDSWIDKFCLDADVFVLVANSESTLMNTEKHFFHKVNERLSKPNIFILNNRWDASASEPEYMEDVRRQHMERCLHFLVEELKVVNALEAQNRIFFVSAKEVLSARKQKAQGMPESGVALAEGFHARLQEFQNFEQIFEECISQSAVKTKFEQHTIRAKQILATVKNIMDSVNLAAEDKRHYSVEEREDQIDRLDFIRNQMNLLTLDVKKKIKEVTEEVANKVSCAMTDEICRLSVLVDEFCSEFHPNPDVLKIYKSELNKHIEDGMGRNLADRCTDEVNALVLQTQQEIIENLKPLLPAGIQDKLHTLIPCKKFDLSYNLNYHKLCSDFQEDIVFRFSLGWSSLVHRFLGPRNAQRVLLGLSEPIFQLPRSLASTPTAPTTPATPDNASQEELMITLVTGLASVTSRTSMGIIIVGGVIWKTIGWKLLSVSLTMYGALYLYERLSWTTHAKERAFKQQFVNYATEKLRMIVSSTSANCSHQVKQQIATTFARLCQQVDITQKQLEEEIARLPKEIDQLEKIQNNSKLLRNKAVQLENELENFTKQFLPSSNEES

[2] = biological target: T2, endogenous MFN2 (human (endogenous in HEK293T)) (UniProt O95140); test: as above
T2 sequence: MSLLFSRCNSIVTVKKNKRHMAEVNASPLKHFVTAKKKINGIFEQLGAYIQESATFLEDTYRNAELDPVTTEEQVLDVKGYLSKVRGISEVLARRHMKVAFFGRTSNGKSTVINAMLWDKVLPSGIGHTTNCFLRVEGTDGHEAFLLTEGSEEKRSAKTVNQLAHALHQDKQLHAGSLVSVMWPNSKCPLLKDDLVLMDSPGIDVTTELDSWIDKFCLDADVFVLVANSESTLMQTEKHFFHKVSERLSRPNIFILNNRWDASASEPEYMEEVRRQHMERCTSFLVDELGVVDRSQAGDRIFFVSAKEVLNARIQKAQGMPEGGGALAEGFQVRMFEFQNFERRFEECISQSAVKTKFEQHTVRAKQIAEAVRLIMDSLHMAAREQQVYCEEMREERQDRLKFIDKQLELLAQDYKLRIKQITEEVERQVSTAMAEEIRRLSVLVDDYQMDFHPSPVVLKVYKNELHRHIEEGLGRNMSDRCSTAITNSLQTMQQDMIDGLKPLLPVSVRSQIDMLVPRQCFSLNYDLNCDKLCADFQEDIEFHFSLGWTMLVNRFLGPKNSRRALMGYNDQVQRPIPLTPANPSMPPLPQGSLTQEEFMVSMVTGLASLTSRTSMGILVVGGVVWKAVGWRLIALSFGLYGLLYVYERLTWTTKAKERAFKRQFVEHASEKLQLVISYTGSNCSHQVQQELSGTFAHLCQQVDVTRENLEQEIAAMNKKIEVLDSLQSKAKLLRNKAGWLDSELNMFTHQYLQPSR

[3] = biological target: T2, endogenous MFN2 (human (endogenous in HEK293T)); test: co-IP; endogenous MFN2 with REEP5 from HEK293T cells expressing mEmerald tagged REEP5 CT as competitor

binding [1]: binds
binding [2]: binds
binding [3]: binds
Substance: endogenous REEP5 (from UniProt Q00765 1-189)
